No constants are given. Whether binding was seen depends on the method and setting. Binding seen in cells or lysates may run through a third protein. These calls come from enrichment with a bait or labelling near it, and not all partners need be listed.
target: T1, purine-rich element binding protein alpha (PURα) (human (endogenous in KYSE510)) (UniProt Q00577); test: affinity purification with mass spectrometry; whole-cell extracts of KYSE510 cells immunoprecipitated with anti-PURα antibody or rabbit IgG on magnetic beads; on-bead trypsin; label-free quantification (LFQ) LC-MS/MS; criteria unique peptides ≥1 and LFQ intensity ratio ≥1.8
T1 sequence: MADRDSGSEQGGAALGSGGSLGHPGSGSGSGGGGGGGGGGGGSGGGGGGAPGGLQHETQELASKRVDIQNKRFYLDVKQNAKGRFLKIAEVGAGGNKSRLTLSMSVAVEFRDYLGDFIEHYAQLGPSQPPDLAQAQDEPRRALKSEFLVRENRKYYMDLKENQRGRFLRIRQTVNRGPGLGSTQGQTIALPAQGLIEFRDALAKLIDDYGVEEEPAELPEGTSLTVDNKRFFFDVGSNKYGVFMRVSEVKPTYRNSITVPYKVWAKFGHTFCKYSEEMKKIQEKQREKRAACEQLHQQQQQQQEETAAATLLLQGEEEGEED

Sequences of proteins named here, by UniProt entry; tags and fusion partners are left off.
UniProt P55884: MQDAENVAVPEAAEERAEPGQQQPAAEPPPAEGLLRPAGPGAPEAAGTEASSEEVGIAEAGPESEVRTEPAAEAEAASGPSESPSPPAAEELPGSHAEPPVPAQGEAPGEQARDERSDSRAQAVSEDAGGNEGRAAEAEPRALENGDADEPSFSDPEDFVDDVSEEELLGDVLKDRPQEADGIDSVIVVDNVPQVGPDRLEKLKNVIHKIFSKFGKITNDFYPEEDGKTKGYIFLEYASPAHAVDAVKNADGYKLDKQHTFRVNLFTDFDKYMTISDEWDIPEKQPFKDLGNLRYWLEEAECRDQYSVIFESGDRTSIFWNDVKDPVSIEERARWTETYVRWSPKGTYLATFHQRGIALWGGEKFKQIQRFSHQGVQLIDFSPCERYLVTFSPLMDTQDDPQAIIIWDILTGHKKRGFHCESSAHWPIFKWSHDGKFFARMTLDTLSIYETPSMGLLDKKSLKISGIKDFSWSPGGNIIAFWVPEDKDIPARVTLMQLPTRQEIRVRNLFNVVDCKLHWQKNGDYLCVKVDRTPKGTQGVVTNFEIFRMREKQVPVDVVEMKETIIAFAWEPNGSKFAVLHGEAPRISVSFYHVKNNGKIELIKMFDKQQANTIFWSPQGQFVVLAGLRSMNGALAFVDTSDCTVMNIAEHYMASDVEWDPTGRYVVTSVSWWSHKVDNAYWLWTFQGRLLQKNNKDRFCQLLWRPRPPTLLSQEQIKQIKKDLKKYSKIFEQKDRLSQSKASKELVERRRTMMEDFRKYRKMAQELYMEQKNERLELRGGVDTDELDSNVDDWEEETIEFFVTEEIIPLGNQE
UniProt P11940: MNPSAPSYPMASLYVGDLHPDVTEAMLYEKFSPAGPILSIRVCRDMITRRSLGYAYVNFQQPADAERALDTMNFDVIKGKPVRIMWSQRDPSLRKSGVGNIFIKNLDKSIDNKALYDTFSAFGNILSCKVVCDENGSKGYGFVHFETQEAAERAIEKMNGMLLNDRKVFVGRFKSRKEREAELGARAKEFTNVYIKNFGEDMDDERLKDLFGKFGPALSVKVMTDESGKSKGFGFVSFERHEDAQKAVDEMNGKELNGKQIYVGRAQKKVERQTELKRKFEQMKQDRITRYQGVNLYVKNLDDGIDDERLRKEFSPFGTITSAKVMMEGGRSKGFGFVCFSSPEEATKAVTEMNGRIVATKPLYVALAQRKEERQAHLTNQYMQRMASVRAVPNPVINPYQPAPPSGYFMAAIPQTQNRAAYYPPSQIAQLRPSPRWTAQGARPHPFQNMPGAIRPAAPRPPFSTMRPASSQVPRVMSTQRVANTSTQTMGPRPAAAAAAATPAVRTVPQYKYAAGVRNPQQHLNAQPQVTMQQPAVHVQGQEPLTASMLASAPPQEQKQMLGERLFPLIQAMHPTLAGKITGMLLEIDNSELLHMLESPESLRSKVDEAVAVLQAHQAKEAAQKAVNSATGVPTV
UniProt O00567: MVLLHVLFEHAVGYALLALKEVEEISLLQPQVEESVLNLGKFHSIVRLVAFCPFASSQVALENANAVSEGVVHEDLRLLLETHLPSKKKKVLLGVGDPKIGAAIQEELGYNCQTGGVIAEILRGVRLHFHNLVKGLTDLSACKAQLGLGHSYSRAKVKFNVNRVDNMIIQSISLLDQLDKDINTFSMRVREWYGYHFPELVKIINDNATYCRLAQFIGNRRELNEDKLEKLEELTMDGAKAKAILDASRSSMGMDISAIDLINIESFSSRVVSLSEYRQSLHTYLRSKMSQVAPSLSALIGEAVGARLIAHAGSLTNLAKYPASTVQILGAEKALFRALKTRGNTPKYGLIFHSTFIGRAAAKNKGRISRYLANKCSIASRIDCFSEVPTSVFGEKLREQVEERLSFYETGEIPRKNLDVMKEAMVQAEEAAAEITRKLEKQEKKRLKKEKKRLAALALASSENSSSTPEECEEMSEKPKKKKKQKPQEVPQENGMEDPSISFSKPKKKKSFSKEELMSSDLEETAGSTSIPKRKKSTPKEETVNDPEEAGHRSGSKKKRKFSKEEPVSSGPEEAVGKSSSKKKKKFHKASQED
UniProt O00303: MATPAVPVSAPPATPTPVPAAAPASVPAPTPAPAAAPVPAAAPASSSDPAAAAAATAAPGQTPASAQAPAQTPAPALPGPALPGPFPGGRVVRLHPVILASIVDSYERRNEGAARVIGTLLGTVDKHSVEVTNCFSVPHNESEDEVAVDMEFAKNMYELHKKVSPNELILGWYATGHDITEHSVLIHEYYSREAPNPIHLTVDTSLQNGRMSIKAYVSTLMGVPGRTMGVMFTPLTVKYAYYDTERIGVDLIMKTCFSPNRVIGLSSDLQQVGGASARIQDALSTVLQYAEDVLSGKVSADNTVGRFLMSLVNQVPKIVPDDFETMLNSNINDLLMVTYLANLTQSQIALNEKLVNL
UniProt O60506: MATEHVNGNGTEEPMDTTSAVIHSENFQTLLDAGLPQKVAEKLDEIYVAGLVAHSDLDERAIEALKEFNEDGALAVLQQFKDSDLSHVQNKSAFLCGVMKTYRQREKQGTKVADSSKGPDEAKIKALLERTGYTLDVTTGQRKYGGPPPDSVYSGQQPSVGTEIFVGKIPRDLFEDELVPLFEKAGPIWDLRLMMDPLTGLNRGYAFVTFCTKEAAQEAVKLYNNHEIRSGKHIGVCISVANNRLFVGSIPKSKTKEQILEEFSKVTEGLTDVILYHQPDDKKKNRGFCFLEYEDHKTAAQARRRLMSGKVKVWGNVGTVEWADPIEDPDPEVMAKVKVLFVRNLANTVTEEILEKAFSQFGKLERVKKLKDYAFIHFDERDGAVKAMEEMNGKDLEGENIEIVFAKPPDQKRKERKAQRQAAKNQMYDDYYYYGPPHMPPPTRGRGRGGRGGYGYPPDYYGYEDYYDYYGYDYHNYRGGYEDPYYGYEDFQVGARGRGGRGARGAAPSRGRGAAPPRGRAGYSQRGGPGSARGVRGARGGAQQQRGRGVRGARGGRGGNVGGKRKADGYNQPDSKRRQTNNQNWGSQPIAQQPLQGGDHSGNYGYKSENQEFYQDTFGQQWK
UniProt P50750: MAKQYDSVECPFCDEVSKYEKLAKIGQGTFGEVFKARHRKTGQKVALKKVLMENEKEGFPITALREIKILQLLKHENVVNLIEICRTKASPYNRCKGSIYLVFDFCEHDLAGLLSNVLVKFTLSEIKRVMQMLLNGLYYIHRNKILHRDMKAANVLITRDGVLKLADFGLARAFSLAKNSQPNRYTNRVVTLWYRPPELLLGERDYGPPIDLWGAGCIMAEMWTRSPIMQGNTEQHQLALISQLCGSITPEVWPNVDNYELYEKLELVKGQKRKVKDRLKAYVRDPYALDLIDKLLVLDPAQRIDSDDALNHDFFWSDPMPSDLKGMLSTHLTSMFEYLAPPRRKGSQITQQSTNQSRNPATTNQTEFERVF

Row | Substance | binding
1 | EIF3B (from UniProt P55884 1-814) | binds
2 | PABPC1 (from UniProt P11940 1-636) | binds
3 | NOP56 (from UniProt O00567 1-594) | binds

Results, then the substance that gave them:

Row | binding | Substance
4 | binds | EIF3F (from UniProt O00303 1-357)
5 | binds | SYNCRIP (from UniProt O60506 1-623)
6 | binds | CDK9 (from UniProt P50750 1-372)
